Tested on: K. pneumoniae
Assay: Dual assays percent correct score versus algorithmically called MIC
Type: cell-based
Details: more than 30 strains

Gentamycin
percent correct score, metabolic assay versus algorithmically called MIC: 83% | percent correct score, surface binding assay versus algorithmically called MIC: 95%

Reference: patent publication US20200325518A1, “Systems and Methods for Metabolic Assessment Utilizing 1-Methoxy-PMS Field” (priority 2019, published 2020)
